# The inconclusive results got no clear call from the source; some entries with a clear call stand among them for comparison. For part of these data: Potencies of inconclusive entries are doubtful fits and often do not repeat. Activity calls are given as the source filed them. How the source made its calls: active means hit-call score of the fitted dose curve at least 0.9, where 1 is the maximum; inconclusive means response in the unintended direction; inactive means score below 0.9.
# By UniProt entry, the sequences of proteins in these tests, tags left out. Where a name states a change or a piece, a line headed by the entry shows the natural chain unless it says otherwise.
# UniProt Q9UNQ0: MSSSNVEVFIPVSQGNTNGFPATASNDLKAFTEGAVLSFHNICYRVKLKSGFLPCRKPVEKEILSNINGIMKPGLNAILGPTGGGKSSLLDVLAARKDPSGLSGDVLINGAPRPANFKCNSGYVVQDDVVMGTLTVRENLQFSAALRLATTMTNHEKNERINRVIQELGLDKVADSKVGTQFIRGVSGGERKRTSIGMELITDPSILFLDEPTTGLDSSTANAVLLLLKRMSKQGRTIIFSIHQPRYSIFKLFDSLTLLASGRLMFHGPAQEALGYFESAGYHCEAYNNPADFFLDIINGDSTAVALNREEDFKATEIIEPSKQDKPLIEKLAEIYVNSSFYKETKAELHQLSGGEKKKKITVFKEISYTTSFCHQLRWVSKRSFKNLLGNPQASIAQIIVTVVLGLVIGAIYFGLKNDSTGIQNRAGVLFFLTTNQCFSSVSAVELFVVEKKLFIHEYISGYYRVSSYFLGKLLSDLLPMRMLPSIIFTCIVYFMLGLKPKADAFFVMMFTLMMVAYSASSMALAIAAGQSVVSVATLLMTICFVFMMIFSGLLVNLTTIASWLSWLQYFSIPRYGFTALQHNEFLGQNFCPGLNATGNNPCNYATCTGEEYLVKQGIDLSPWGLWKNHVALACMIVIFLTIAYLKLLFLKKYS
# UniProt P33261, whole entry, looked up: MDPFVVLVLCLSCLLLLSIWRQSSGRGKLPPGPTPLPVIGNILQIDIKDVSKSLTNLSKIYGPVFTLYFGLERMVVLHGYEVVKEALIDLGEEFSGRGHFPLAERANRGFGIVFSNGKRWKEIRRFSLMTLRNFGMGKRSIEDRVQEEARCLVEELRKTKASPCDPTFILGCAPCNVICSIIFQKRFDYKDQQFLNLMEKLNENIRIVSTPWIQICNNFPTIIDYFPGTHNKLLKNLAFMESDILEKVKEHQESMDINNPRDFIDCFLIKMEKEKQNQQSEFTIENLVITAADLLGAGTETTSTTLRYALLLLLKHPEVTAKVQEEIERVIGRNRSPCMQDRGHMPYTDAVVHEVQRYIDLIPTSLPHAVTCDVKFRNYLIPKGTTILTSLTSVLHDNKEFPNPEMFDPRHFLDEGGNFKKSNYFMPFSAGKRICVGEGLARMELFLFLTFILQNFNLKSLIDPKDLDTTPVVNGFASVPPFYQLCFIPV
# UniProt P11712, whole entry, looked up: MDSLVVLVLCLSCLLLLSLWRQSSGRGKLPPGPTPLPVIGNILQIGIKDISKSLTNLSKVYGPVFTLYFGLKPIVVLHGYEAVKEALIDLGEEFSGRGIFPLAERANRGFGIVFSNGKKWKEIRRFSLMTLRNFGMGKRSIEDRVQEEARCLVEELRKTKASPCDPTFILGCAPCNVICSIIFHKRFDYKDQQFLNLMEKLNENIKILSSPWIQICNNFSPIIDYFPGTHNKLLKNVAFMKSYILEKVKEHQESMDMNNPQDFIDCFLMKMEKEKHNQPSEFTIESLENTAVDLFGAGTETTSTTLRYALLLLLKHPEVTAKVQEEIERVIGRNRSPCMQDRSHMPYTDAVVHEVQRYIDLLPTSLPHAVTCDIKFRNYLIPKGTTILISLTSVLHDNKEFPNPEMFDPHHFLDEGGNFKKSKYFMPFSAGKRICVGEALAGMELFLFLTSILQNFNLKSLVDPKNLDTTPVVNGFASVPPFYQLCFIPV
# UniProt P04406: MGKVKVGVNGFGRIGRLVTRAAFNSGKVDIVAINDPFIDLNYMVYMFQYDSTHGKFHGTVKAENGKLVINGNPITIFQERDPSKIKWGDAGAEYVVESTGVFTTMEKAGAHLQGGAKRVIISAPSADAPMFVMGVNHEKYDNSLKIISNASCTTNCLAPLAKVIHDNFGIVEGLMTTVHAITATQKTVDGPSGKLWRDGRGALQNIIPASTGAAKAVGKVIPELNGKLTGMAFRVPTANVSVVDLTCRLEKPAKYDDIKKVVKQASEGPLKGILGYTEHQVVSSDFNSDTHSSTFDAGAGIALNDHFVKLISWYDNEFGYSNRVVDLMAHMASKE
# UniProt P20813: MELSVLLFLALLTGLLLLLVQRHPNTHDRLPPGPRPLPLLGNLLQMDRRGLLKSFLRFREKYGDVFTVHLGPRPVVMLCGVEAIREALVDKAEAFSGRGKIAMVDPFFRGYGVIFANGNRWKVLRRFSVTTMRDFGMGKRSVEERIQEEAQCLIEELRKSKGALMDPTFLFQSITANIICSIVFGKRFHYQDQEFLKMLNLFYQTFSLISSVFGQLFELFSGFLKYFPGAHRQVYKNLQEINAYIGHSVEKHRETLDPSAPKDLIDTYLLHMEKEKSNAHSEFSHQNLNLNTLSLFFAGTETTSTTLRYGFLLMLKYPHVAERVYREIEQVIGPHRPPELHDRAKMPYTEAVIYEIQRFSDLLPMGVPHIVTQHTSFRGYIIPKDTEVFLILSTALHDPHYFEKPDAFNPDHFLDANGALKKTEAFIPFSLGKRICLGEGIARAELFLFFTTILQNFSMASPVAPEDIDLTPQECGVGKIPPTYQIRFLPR
# UniProt P08684, whole entry, looked up: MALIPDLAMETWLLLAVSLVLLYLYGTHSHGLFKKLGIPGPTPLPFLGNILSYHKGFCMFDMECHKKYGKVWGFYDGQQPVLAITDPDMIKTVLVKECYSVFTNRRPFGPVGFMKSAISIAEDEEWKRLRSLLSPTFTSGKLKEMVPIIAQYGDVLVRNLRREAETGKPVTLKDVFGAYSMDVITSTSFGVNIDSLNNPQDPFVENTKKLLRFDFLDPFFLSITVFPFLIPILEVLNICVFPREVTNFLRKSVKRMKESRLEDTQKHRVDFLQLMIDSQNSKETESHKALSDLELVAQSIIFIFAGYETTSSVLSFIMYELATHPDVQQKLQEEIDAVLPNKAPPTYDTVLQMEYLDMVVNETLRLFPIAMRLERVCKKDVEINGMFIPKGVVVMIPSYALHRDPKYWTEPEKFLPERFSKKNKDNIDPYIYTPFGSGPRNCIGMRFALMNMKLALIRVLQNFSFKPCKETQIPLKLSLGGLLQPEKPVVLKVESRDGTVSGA
# Key:
# [1] = read-out: Broad substrate specificity ATP-binding cassette transporter ABCG2 (Homo sapiens) (UniProt Q9UNQ0); experiment: CLD_ABCG2_24hr: CellzDirect (CLD) Gene Expression Assay for ABC Transporter (ABCG2) at 24 hours (AID 2283685);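 on AC50: AC50 is for induction meaning signal gain over DMSO vehicle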
# Outline: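 Primary human hepatocytes were dosed daily with ToxCast chemicals at multiple concentrations (vehicle 0.2% DMSO). ABCG2 mRNA was measured at 24 h by qNPA chemiluminescence; induction was scored as gain of signal versus DMSO.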
# [2] = read-out: Cytochrome P450 2C19 (Homo sapiens) (UniProt P33261); experiment: CLD_CYP2C19_24hr: CellzDirect (CLD) Gene Expression Assay for xenobiotic metabolism (CYP2C19) at 24 hours (AID 2283687);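 on outcome: activity means mRNA induction above DMSO vehicle baseline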
# Outline: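 Primary human hepatocytes (two donor preparations) dosed daily with fresh test chemical in 0.2% DMSO vehicle; CYP2C19 mRNA induction measured at 24 h by quantitative nuclease protection assay with chemiluminescence, fitted for gain of signal versus DMSO.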
# [3] = read-out: Cytochrome P450 2C9 (Homo sapiens) (UniProt P11712); experiment: CLD_CYP2C9_24hr: CellzDirect (CLD) Gene Expression Assay for xenobiotic metabolism (CYP2C9) at 24 hours (AID 2283688);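 on AC50: potency for induction meaning a rise in CYP2C9 mRNA over DMSO vehicle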
# Outline: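 Primary human hepatocytes from two donor preparations, dosed daily for two days at multiple concentrations; vehicle 0.2% DMSO. CYP2C9 mRNA induction at 24 h measured by qNPA chemiluminescence relative to DMSO; cytotoxicity annotated from morphology.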
# [4] = read-out: organic anion transporter (SLCO1B1), SLCO1B1 (gene 10599); experiment: CLD_SLCO1B1_24hr: CellzDirect (CLD) Gene Expression Assay for organic anion transporter (SLCO1B1) at 24 hours (AID 2283690)
# Outline: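 Primary human hepatocytes (two donor preparations) dosed daily for two days with chemicals at multiple concentrations, 0.2% DMSO vehicle. SLCO1B1 mRNA at 24 h measured by qNPA chemiluminescence; induction fitted relative to DMSO.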
# [5] = read-out: HMG-CoA synthase (HMGCS2), HMGCS2 (gene 3158); experiment: CLD_HMGCS2_24hr: CellzDirect (CLD) Gene Expression Assay for HMG-CoA synthase (HMGCS2) at 24 hours (AID 2283691)
# Outline: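 Primary human hepatocytes from two donor preparations, dosed daily with fresh solutions; vehicle 0.2% DMSO, 24 h harvest. HMGCS2 mRNA quantified by qNPA with S1 nuclease digestion and chemiluminescence; gain fitted versus DMSO, cytotoxicity annotated by morphology.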
# [6] = read-out: Glyceraldehyde-3-phosphate dehydrogenase (Homo sapiens) (UniProt P04406); experiment: CLD_GAPDH_24hr: CellzDirect (CLD) Gene Expression Assay for Baseline Control (Glyceraldehyde 3-phosphate dehydrogenase) at 24 hours (AID 2283692)
# Outline: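 Primary human hepatocytes (two donor preparations) dosed daily for two days, 0.2% DMSO vehicle; GAPDH mRNA measured at 24 h by qNPA chemiluminescence as a background control, gain-of-signal fitted against DMSO.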
# [7] = read-out: sulfotransferase (SULT2A), SULT2A1 (gene 6822); experiment: CLD_SULT2A_24hr: CellzDirect (CLD) Gene Expression Assay for sulfotransferase (SULT2A) at 24 hours (AID 2283694)
# Outline: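 Primary human hepatocytes from two donor preparations were dosed daily with fresh solutions, vehicle 0.2% DMSO. At 24 h, lysates went to quantitative nuclease protection (qNPA) with S1 digestion and chemiluminescent readout. Cytotoxicity was annotated from phase-contrast morphology.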
# [8] = read-out: ABC Transporter (ABCB1), ABCB1 (gene 5243); experiment: CLD_ABCB1_48hr: CellzDirect (CLD) Gene Expression Assay for ABC Transporter (ABCB1) at 48 hours (AID 2283695);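 on AC50: potency for induction meaning increase of mRNA over DMSO vehicle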
# Outline: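 Primary human hepatocytes from two donor preparations dosed daily on two consecutive days with 0.2% DMSO vehicle. Harvest at 48 h. ABCB1 mRNA quantified by qNPA with chemiluminescence and fitted for gain of signal versus DMSO.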
# [9] = read-out: ABC Transporter (ABCB11), ABCB11 (gene 8647); experiment: CLD_ABCB11_48hr: CellzDirect (CLD) Gene Expression Assay for ABC Transporter (ABCB11) at 48 hours (AID 2283697)
# Outline: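 Primary human hepatocytes from two donor preparations dosed daily for two days at multiple concentrations; 0.2% DMSO vehicle. ABCB11 mRNA at 48 h by quantitative nuclease protection assay, chemiluminescence; fitted for induction versus DMSO.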
# [10] = read-out: Cytochrome P450 2B6 (Homo sapiens) (UniProt P20813); experiment: CLD_CYP2B6_48hr: CellzDirect (CLD) Gene Expression Assay for xenobiotic metabolism (CYP2B6) at 48 hours (AID 2283699);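 further: actives raise transcript level above DMSO so potency reflects induction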
# Outline: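 Primary human hepatocytes dosed daily for two days over multiple concentrations, 0.2% DMSO vehicle; CYP2B6 mRNA quantified at 48 h by qNPA chemiluminescence. Induction fitted as gain of signal versus DMSO; cytotoxicity annotated by morphology.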
# [11] = read-out: Cytochrome P450 2C19 (Homo sapiens) (UniProt P33261); experiment: CLD_CYP2C19_48hr: CellzDirect (CLD) Gene Expression Assay for xenobiotic metabolism (CYP2C19) at 48 hours (AID 2283700)
# Outline: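 Primary human hepatocytes (two donor preparations) dosed daily for two days, harvested at 48 h; CYP2C19 mRNA induction measured by qNPA chemiluminescence. Gain-of-signal fitted relative to 0.2% DMSO vehicle as baseline.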
# [12] = read-out: Broad substrate specificity ATP-binding cassette transporter ABCG2 (Homo sapiens) (UniProt Q9UNQ0); experiment: CLD_ABCG2_48hr: CellzDirect (CLD) Gene Expression Assay for ABC Transporter (ABCG2) at 48 hours (AID 2283704);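 further: potency for induction of ABCG2 mRNA above the DMSO baseline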
# Outline: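 Primary human hepatocytes from two donors, dosed daily for 2 days, 0.2% DMSO vehicle, several concentrations. ABCG2 mRNA at 48 h by qNPA chemiluminescence, gain fitted versus DMSO; cytotoxicity flagged by morphology.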
# [13] = read-out: organic anion transporter (SLCO1B1), SLCO1B1 (gene 10599); experiment: CLD_SLCO1B1_48hr: CellzDirect (CLD) Gene Expression Assay for organic anion transporter (SLCO1B1) at 48 hours (AID 2283707)
# Outline: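 Primary human hepatocytes from two donor preparations dosed daily for two days with multiple concentrations, 0.2% DMSO vehicle. SLCO1B1 mRNA at 48 h by quantitative nuclease protection assay, chemiluminescence; gain-of-signal fitted versus DMSO.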
# [14] = read-out: alkyl and aryl transferase (GSTA2), GSTA2 (gene 2939); experiment: CLD_GSTA2_48hr: CellzDirect (CLD) Gene Expression Assay for alkyl and aryl transferase (GSTA2) at 48 hours (AID 2283708);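 further: active means mRNA induction above DMSO vehicle baseline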
# Outline: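 Primary human hepatocytes dosed daily for two days (0.2% DMSO vehicle), harvested at 48 h. GSTA2 mRNA induction measured by quantitative nuclease protection assay with chemiluminescent imaging, fitted for gain of signal relative to DMSO.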
# [15] = read-out: alkyl and aryl transferase (GSTA2), GSTA2 (gene 2939); experiment: CLD_GSTA2_24hr: CellzDirect (CLD) Gene Expression Assay for alkyl and aryl transferase (GSTA2) at 24 hours (AID 2283693)
# Outline: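 Primary human hepatocytes (two donor preparations) dosed daily for two days with chemicals at multiple concentrations (vehicle 0.2% DMSO); GSTA2 mRNA at 24 h measured by qNPA chemiluminescence, gain-of-signal versus DMSO.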
# [16] = CLD_ACTIN_48hr: CellzDirect (CLD) Gene Expression Assay for Baseline Control (Actin) at 48 hours (AID 2283702)
# Outline: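 Primary human hepatocytes (two donor preparations) dosed daily for two days with ToxCast chemicals at multiple concentrations versus 0.2% DMSO vehicle; harvested at 48 h. Actin mRNA measured as a background control by quantitative nuclease protection assay with chemiluminescence.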
# [17] = read-out: Glyceraldehyde-3-phosphate dehydrogenase (Homo sapiens) (UniProt P04406); experiment: CLD_GAPDH_48hr: CellzDirect (CLD) Gene Expression Assay for Baseline Control (Glyceraldehyde 3-phosphate dehydrogenase) at 48 hours (AID 2283706)
# Outline: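 Primary human hepatocytes dosed daily for two days with fresh chemical at multiple concentrations, 0.2% DMSO vehicle; GAPDH mRNA measured at 48 h by quantitative nuclease protection assay with chemiluminescence, fitted upward relative to DMSO as background control.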
# [18] = read-out: xenobiotic metabolism (CYP1A1), CYP1A1 (gene 1543); experiment: CLD_CYP1A1_48hr: CellzDirect (CLD) Gene Expression Assay for xenobiotic metabolism (CYP1A1) at 48 hours (AID 2283705)
# Outline: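 Primary human hepatocytes from two donors dosed daily for two days at multiple concentrations, 0.2% DMSO vehicle; CYP1A1 mRNA induction at 48 h by qNPA chemiluminescence. Cytotoxicity noted by phase-contrast morphology.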
# [19] = read-out: Cytochrome P450 3A4 (Homo sapiens) (UniProt P08684); experiment: CLD_CYP3A4_24hr: CellzDirect (CLD) Gene Expression Assay for xenobiotic metabolism (CYP3A4) at 24 hours (AID 2283689)
# Outline: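 Primary human hepatocytes from two donors dosed daily with fresh compound for two days, 0.2% DMSO vehicle. CYP3A4 mRNA at 24 hr by qNPA chemiluminescence; gain-of-signal fit versus DMSO, cytotoxicity flagged by morphology.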
smiles,measurement,setting,value
Cc1ccc(-c2c(Cl)nc(C#N)n2S(=O)(=O)N(C)C)cc1,outcome,[1],inactive
same,AC50,[2],inconclusive: 1.11 µM
same,AC50,[3],inconclusive: 0.0511 µM
same,AC50,[4],inconclusive: 0.0495 µM
same,AC50,[5],inconclusive: 0.264 µM
same,outcome,[6],inactive
same,outcome,[7],inactive
same,outcome,[8],inactive
same,AC50,[9],inconclusive: 20 µM
same,AC50,[10],inconclusive: 20 µM
same,AC50,[11],inconclusive: 36.9 µM
same,AC50,[12],inconclusive: 0.138 µM
same,AC50,[13],inconclusive: 20 µM
same,outcome,[14],inactive
CCN(CC)c1nc(C)cc(OP(=S)(OC)OC)n1,AC50,[1],inconclusive: 20 µM
same,AC50,[2],inconclusive: 20 µM
same,AC50,[3],inconclusive: 20 µM
same,AC50,[5],inconclusive: 20 µM
same,AC50,[6],inconclusive: 20 µM
same,AC50,[15],inconclusive: 20 µM
same,AC50,[8],inconclusive: 20 µM
same,AC50,[11],inconclusive: 31.9 µM
same,AC50,[16],inconclusive: 31.6 µM
same,AC50,[17],inconclusive: 17.9 µM
same,AC50,[14],inconclusive: 20 µM
O=C(Nc1ccccc1-c1ccc(Cl)cc1)c1cccnc1Cl,AC50,[1],inconclusive: 20 µM
same,AC50,[2],inconclusive: 10.4 µM
same,AC50,[3],inconclusive: 32.3 µM
same,AC50,[5],inconclusive: 35.6 µM
same,AC50,[6],inconclusive: 20 µM
same,AC50,[15],inconclusive: 20 µM
same,AC50,[9],inconclusive: 20 µM
same,AC50,[11],inconclusive: 4.72 µM
same,outcome,[16],inactive
same,AC50,[12],inconclusive: 20 µM
same,AC50,[18],active: 20 µM
same,AC50,[17],inconclusive: 33.2 µM
same,AC50,[13],inconclusive: 37.9 µM
CC(C)(C)C(O)/C(=C\c1ccc(Cl)cc1Cl)n1cncn1 (stereo not given),outcome,[1],inactive
same,AC50,[2],inconclusive: 8.14 µM
same,outcome,[3],inactive
same,AC50,[6],inconclusive: 6.82 µM
same,outcome,[15],inactive
same,AC50,[8],active: 31.3 µM
same,AC50,[9],inconclusive: 7.81 µM
same,AC50,[11],inconclusive: 3.97 µM
same,AC50,[16],inconclusive: 0.102 µM
same,AC50,[18],active: 20 µM
same,AC50,[17],inconclusive: 11 µM
same,outcome,[14],inactive
COC(=O)c1ccccc1CS(=O)(=O)NC(=O)Nc1nc(OC)cc(OC)n1,AC50,[1],inconclusive: 0.00449 µM
same,outcome,[2],inactive
same,outcome,[19],inactive
same,AC50,[4],inconclusive: 20 µM
same,AC50,[5],inconclusive: 0.00101 µM
same,AC50,[8],inconclusive: 20 µM
same,AC50,[9],inconclusive: 0.0138 µM
same,outcome,[10],inactive
same,AC50,[16],inconclusive: 0.372 µM
same,outcome,[13],inactive

# A stretch taken from the entries so far, for reference:
smiles,measurement,setting,value
COC(=O)c1ccccc1CS(=O)(=O)NC(=O)Nc1nc(OC)cc(OC)n1,AC50,[8],inconclusive: 20 µM
same,AC50,[9],inconclusive: 0.0138 µM
same,outcome,[10],inactive
